Results from publication PMC10681309.
Results are given in words; binding and its absence hold for the method and conditions named. For some assays here: Binding seen in cells or lysates may run through a third protein. Some entries that bind do so weakly or less than the wild type. Sequences can lack the tags named with a protein.

How the values were obtained:
[1] = target: T1, GST-MDA5 (purified from E. coli) (UniProt Q9BYX4); experiment: pull-down; both purified
T1 sequence: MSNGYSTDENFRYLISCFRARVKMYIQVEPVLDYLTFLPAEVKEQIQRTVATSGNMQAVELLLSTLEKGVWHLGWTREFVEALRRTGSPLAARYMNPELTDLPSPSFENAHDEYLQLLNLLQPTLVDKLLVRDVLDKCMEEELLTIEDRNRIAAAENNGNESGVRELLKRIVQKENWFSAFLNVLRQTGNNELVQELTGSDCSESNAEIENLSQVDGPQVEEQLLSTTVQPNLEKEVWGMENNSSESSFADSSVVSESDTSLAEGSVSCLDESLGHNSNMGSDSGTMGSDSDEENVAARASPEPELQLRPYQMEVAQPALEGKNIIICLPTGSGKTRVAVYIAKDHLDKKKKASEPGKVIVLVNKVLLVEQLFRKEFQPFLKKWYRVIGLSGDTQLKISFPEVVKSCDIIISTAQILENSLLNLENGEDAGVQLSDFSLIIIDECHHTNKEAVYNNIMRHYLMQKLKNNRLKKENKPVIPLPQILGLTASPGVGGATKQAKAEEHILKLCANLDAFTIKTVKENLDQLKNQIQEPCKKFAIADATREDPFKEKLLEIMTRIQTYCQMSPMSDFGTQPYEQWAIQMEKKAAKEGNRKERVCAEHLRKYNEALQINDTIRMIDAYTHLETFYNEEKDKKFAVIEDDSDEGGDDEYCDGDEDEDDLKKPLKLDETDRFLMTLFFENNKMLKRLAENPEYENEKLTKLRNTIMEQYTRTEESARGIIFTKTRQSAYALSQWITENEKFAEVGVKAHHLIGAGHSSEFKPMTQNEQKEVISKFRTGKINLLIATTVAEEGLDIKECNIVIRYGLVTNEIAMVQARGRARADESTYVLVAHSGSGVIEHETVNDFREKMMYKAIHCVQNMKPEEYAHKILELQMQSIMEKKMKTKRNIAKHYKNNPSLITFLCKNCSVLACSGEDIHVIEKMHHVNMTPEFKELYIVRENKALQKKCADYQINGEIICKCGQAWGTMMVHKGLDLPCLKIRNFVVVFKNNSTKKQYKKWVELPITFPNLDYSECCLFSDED

full-length GST-MDA5 = target: T2, full-length GST-MDA5 (UniProt Q9BYX4); experiment: co-IP
T2 sequence: T1 sequence

Substance	binding [1]	binding (full-length GST-MDA5)
Flag-nsp8 (SARS-CoV-2 nonstructural protein 8) (from UniProt P0DTD1 3943-4140)	binds	–
GFP-nsp8 (SARS-CoV-2 nonstructural protein 8) (from UniProt P0DTD1 3943-4140)	–	binds
